Values of other authors, collected in US20240390360A1, “Therapeutic Combinations Of Orally Administered Paclitaxel, A P-gp Inhibitor, And A Checkpoint Inhibitor For The Treatment Of Solid Tumors” (Athenex, Inc., priority 2021, published 2024).
Some entries share one result that the patent states for a list of compounds.

System: relapsed/refractory lung cancer
Conditions: relapsed/refractory lung cancer patients; monotherapy, current FDA-approved therapies; cited from earlier work

SMILES	response rate
Nc1nc2[nH]cc(CCc3ccc(C(=O)N[C@@H](CCC(=O)O)C(=O)O)cc3)c2c(=O)[nH]1 [Alimta]	≤ 20%
CC(=O)O[C@@]12CO[C@@H]1C[C@H](O)[C@@]1(C)C(=O)[C@H](O)C3=C(C)[C@@H](OC(=O)[C@H](O)[C@@H](NC(=O)OC(C)(C)C)c4ccccc4)C[C@@](O)([C@@H](OC(=O)c4ccccc4)[C@H]21)C3(C)C [Taxotere]	≤ 20%
